Among the data in paper doi:10.1101/2022.07.16.500195 are binding values, retold here.

Results are given in words; binding and its absence hold for the method and conditions named. For some assays here: Binding seen in cells or lysates may run through a third protein. Some binding calls cover weakened binding; strength is not graded here.

The target in test [1] is PulM^WT (native PulM, Cys at position 17) (Klebsiella oxytoca) (UniProt P15752). Briefly: cross-linking.
Test [2] has as its target PulM^C17L-L18C (Klebsiella oxytoca) (UniProt P15752). Briefly: cross-linking.
The target in test [3] is PulL^C264L with Cys at position 251 (PulL^V251C) (Klebsiella oxytoca) (UniProt P15751). Kind of test: cross-linking.
For test [4], the target named is full-length PulM fused to T18 or T25 (T18-PulM, T25-PulM) (Klebsiella oxytoca) (UniProt P15752). Briefly: two-hybrid.
The target in test [5] is full-length PulL fused to T18 or T25 (T18-PulL, T25-PulL) (Klebsiella oxytoca) (UniProt P15751). Briefly: two-hybrid.
Test [6] has as its target PulL^C264L with Cys at position 250 (PulL^I250C) (Klebsiella oxytoca) (UniProt P15751). Kind of test: cross-linking.

With “PulL^C264L with Cys at position 251 (PulL^V251C) (from UniProt P15751 1-398)”, the binding entry in test [1], in test [2] and in test [3] was “binds” each time.
In the case of “full-length PulM fused to T18 or T25 (T18-PulM, T25-PulM) (from UniProt P15752 1-161)”, in test [4], the binding result is “binds”.
Consider “PulM^WT (native PulM, Cys at position 17) (from UniProt P15752 1-161)”, for which, in test [1], the binding entry is reported as “binds”.
Turning to “full-length PulL fused to T18 or T25 (T18-PulL, T25-PulL) (from UniProt P15751 1-398)”, the figures for the binding result in test [4] and in test [5] were “binds” and “no binding”, respectively.
Regarding “PulM^C17L-L18C (from UniProt P15752 1-161)”, in test [2], the binding result is “binds”.
Regarding “PulL^C264L with Cys at position 250 (PulL^I250C) (from UniProt P15751 1-398)”, the binding entry in test [1], in test [6] and in test [2] was “binds” in each case.
